Test results reported in PMC10128965.
No constants are given. Whether binding was seen depends on the method and setting. Binding seen in cells or lysates may run through a third protein. Some binding calls cover weakened binding; strength is not graded here.

Amino acid sequences for entries named in this document (tags omitted). A change or cut given only in a name is not applied to a line headed by its entry.
UniProt P0DTC4: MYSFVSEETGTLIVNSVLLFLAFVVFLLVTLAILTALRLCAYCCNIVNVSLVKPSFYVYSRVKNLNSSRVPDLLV

Key:
[1] = target: T1, CD1d, immature ER form (precipitated by antibody CD1d.D5) (UniProt P15813); test: co-IP
T1 sequence: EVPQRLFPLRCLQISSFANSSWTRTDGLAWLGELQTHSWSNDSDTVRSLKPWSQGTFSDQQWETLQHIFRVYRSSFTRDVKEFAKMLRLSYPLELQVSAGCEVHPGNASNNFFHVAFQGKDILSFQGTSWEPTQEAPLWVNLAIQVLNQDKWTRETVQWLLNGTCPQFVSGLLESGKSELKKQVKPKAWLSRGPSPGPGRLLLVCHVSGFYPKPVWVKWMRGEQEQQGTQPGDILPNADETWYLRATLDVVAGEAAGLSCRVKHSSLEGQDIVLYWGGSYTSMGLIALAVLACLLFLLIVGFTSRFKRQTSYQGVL

[2] = target: T2, CD1d, mature post-ER form (precipitated by antibody CD1d.51.1) (UniProt P15813); test: co-IP
T2 sequence (chain, complex glycosylation): T1 sequence

Substance | binding [1] | binding [2]
SARS-CoV-2 E protein transmembrane domain (TM, amino acids 9-38), Strep-tagged (from UniProt P0DTC4 9-38) (domain or fragment) | binds | binds
SARS-CoV-2 envelope (E) protein, Strep-tagged (from UniProt P0DTC4 1-75) | binds | –
